Test results as given in paper PMC6057324.
No constants are given. Whether binding was seen depends on the method and setting. In cells and extracts the contact can be indirect. Some binding calls cover weakened binding; strength is not graded here. Where a sequence is shown, tags or fusion partners need not be part of it.

Sequences of proteins named here, by UniProt entry; tags and fusion partners are left off.
UniProt Q8N884: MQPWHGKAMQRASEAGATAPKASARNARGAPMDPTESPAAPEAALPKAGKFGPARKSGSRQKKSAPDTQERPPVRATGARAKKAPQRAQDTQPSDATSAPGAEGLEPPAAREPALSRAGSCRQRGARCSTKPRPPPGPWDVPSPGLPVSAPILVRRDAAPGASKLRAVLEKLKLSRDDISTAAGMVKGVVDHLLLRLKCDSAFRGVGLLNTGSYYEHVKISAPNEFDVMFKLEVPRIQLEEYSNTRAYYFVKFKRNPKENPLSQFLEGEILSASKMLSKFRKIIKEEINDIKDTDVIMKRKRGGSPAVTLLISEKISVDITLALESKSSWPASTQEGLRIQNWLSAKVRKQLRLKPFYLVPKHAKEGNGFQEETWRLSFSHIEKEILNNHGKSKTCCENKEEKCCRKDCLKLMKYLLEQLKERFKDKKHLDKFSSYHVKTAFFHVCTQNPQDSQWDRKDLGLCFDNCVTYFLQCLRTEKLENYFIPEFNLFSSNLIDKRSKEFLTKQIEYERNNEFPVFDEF
UniProt Q7Z434: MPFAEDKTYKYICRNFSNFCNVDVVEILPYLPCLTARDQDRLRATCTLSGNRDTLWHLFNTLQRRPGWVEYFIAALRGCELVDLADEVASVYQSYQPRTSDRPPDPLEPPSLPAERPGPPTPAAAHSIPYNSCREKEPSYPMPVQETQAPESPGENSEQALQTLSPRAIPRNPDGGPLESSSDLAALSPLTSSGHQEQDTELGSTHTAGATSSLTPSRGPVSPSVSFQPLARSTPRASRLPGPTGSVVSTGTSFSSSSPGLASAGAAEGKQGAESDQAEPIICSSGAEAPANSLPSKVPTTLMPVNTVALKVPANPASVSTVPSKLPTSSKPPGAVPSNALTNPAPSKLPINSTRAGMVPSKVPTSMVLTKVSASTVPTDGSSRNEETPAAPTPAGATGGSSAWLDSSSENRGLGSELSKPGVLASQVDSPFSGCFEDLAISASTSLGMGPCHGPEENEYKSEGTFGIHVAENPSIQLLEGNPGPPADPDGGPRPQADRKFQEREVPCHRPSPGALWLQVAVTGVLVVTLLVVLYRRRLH
UniProt Q86WV6: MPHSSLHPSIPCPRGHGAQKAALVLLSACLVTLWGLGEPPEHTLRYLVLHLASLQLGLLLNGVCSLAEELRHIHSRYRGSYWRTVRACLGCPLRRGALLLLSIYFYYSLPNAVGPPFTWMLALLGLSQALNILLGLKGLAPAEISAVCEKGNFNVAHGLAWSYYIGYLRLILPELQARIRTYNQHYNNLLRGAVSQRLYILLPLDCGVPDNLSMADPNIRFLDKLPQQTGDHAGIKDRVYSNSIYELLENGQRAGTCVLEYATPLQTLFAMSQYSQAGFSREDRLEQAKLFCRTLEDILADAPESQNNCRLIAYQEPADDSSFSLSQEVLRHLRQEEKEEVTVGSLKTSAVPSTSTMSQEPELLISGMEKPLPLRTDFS
UniProt Q9UJV9: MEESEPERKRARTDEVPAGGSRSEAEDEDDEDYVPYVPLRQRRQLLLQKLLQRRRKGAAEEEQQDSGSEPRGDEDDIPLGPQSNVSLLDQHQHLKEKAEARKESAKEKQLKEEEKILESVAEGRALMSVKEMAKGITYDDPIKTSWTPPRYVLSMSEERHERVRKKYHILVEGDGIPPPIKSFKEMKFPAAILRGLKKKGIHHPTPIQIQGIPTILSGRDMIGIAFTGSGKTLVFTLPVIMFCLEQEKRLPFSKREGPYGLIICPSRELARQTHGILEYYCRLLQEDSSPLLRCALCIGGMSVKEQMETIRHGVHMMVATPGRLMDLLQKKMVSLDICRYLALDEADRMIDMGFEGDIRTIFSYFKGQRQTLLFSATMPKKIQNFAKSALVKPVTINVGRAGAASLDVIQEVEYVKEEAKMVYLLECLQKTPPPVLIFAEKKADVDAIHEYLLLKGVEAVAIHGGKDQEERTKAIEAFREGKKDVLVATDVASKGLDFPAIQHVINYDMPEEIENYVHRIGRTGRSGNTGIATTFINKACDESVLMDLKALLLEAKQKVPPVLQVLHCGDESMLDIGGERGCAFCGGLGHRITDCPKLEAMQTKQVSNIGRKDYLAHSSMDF

Target: T1, HA-tagged SLC15A3 (UniProt Q8IY34)
T1 sequence: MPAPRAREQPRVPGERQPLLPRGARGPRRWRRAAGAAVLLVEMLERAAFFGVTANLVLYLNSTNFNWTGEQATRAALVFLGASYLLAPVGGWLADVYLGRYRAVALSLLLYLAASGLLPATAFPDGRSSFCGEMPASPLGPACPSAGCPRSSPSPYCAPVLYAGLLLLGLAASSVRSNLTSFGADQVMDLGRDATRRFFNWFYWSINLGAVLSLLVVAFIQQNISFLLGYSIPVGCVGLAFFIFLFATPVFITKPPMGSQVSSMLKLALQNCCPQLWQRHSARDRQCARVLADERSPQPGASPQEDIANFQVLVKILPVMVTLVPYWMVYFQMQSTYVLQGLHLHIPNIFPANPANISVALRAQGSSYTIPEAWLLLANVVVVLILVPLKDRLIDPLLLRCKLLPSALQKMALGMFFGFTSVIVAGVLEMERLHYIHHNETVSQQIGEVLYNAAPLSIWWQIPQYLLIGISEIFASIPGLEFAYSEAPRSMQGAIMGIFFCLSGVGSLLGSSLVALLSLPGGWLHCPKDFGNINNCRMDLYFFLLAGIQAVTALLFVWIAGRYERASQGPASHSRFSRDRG
Assay: co-IP; 293T cotransfected with HA-SLC15A3 and Flag/DDK1-tagged partner; lysis in 20 mM Tris-HCl pH 7.4, 150 mM NaCl, 1 mM EDTA, 1% Triton X-100; anti-HA antibody and protein A/G plus agarose, 4°C, one hour; washed three times in lysis buffer with 0.5 M NaCl; Western blot for Flag/DDK1 or HA

binding	Substance
binds	Flag/DDK1-tagged cGAS (from UniProt Q8N884 1-522)
binds	Myc-DDK1-tagged MAVS (from UniProt Q7Z434 1-540)
binds	Myc-DDK1-tagged STING (from UniProt Q86WV6 1-379)
binds	Flag/DDK1-tagged DDX41 (from UniProt Q9UJV9 1-622)
